Measured values from article doi:10.1101/2023.09.07.556574.

By UniProt entry, the sequences of proteins in these tests, tags left out. Residues count along the entry.
UniProt P52480: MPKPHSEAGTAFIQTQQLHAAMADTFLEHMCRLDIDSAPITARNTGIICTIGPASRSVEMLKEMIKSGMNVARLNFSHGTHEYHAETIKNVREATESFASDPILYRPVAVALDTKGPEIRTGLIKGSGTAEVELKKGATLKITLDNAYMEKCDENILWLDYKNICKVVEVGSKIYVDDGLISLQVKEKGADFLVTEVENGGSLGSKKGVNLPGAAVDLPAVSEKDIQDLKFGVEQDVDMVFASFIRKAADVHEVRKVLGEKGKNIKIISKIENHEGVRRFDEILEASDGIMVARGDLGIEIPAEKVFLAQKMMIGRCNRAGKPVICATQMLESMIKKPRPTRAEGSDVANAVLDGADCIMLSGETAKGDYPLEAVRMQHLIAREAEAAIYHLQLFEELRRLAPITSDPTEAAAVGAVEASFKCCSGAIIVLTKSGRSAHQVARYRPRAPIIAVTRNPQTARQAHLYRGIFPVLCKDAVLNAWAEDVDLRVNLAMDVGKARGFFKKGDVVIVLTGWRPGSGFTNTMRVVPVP
UniProt P38647, residues 47-679: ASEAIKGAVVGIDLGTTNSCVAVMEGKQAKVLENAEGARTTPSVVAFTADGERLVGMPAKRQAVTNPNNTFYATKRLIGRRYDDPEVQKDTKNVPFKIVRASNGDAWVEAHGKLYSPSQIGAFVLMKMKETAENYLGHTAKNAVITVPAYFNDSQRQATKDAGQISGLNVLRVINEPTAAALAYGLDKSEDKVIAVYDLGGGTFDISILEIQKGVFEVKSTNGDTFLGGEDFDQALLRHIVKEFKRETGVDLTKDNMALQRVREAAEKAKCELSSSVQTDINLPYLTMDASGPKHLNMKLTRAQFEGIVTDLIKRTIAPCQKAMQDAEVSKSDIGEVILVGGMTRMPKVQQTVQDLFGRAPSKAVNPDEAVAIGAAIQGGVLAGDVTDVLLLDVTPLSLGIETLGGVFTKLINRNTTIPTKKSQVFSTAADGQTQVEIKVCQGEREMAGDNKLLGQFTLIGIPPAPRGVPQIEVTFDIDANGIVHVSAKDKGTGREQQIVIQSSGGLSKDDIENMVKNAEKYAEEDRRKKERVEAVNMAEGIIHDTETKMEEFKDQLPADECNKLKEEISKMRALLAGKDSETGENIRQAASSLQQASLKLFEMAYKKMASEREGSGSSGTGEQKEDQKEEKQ

How the values were obtained:
[1] = molecular target: pyruvate kinase muscle 2 (PKM2), murine (mouse (endogenous in murine peritoneal macrophages)) (UniProt P52480); assay: affinity purification with mass spectrometry
[2] = molecular target: pyruvate kinase muscle 2 (PKM2), murine (mouse (endogenous in murine peritoneal macrophages)) (UniProt P52480); assay: affinity purification with mass spectrometry; remark: listed apart in the source

Molecule	binding [1]	binding [2]
GRP75, murine (from UniProt P38647 47-679)	binds	–
UQCRC1, a subunit of ETC Complex III, murine (protein, UniProt Q9CZ13 35-480) TATFAQALQSVPETQVSILDNGLRVASEQSSHATCTVGVWIDAGSRYETEKNNGAGYFLEHLAFKGTKNRPGNALEKEVESIGAHLNAYSTREHTAYLIKALSKDLPKVVELLADIVQNSSLEDSQIEKERDVILREMQENDASMQNVVFDYLHATAFQGTPLAQAVEGPSENVRRLSRTDLTDYLNRHYKAPRMVLAAAGGVEHQQLLDLAQKHLSSVSRVYEEDAVPGLTPCRFTGSEIRHRDDALPLAHVAIAVEGPGWANPDNVTLQVANAIIGHYDCTYGGGVHLSSPLASVAVANKLCQSFQTFNISYSDTGLLGAHFVCDAMSIDDMVFFLQGQWMRLCTSATESEVTRGKNILRNALVSHLDGTTPVCEDIGRSLLTYGRRIPLAEWESRIQEVDAQMLRDICSKYFYDQCPAVAGYGPIEQLPDYNRIRSGMFWLRF	–	binds

Read-outs that look alike come from different tables or passages of the source. These are yes or no findings as the source states them, for the method shown. In cells and extracts the contact can be indirect. These calls come from enrichment with a bait or labelling near it, and not all partners need be listed.
